Measurements reported in PubChem BioAssay AID602196 (INSERM, 2012).

Assay: 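Genes whose knock-down alters cisplatin killing of lung cancer cells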
Cells: human A549 lung cancer cells
Reagents: siRNA pair against human genes
Duration: 48 h transfection before cisplatin; time from cisplatin to read-out not stated
Challenge: cisplatin at a dose killing half of control-siRNA cells; exact dose and duration not given
Measurement: 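Cisplatin cell death as a shift from the 50% death seen with control siRNA; siRNAs toxic or growth-blocking alone scored 0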
Reading the numbers: two-siRNA summed score (-2 to +2): higher = both siRNAs protect from cisplatin killing; -2 means both sensitise
Call rule: 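siRNAs harmful alone (LDH or WST-1) get 0; others get +1 for less and -1 for more cisplatin killing; genes are active when the two siRNAs give the same sign, summing to ±2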
Calls: active = both siRNAs shift cisplatin killing the same way; inactive = no consistent shift, or siRNA harmful alone
In all, the deposit lists about 23,000 reagents; this is a part drawn at random. Over the whole deposit, 455 (2%) got an active call. 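Active includes both protection and sensitisation; some change values fall well beyond the stated -50 to +50 range.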 Not all columns of the deposit are shown. The record does not give: the amount of reagent.

Knock-down of IL3RA (GeneID 3563) came out at: two-siRNA summed score (-2 to +2) = 0; inactive.
SPMIP4 (GeneID 136895) scored two-siRNA summed score (-2 to +2) = 2; active.
Depletion of FBN2 (GeneID 2201) came out at: two-siRNA summed score (-2 to +2) = -1; inactive.
CCNQ (GeneID 92002) scored two-siRNA summed score (-2 to +2) = 0; inactive.
Silencing of DHRS7 (GeneID 51635) gave: two-siRNA summed score (-2 to +2) = 0; inactive.
Against ACTR6 (GeneID 64431), the entry reads two-siRNA summed score (-2 to +2) = 0; inactive.
Against OR5M3 (GeneID 219482), the entry reads two-siRNA summed score (-2 to +2) = 0; inactive.
With knock-down of GTSF1 (GeneID 121355), the screen gave two-siRNA summed score (-2 to +2) = 0; inactive.
With knock-down of SUMO3 (GeneID 6612), the screen gave two-siRNA summed score (-2 to +2) = 0; inactive.
For ZNF555 (GeneID 148254), the entry reads two-siRNA summed score (-2 to +2) = 0; inactive.
Silencing of NCK2 (GeneID 8440) gave: two-siRNA summed score (-2 to +2) = 0; inactive.
For LOC441077, the entry reads two-siRNA summed score (-2 to +2) = 1; inactive.
Silencing of PAFAH1B1 (GeneID 5048) resulted in: two-siRNA summed score (-2 to +2) = 0; inactive.
LOC442519 scored two-siRNA summed score (-2 to +2) = 1; inactive.
Silencing of LOC442410 gave: two-siRNA summed score (-2 to +2) = 0; inactive.

Reagents above called active:
SPMIP4 (GeneID 136895): two-siRNA summed score (-2 to +2) = 2; activity call = active

Continued.
QSER1 (GeneID 79832) gave two-siRNA summed score (-2 to +2) = 0; inactive.
Knock-down of BCLAF3 (GeneID 256643) gave: two-siRNA summed score (-2 to +2) = 0; inactive.
For TTC7A (GeneID 57217), the values are two-siRNA summed score (-2 to +2) = -1; inactive.
With knock-down of MYH10 (GeneID 4628), the record shows two-siRNA summed score (-2 to +2) = 0; inactive.
For RPL27A (GeneID 6157) the deposit lists two-siRNA summed score (-2 to +2) = 0; inactive.
Knock-down of LOC439971 gave: two-siRNA summed score (-2 to +2) = 0; inactive.
With knock-down of FJX1 (GeneID 24147), the record shows two-siRNA summed score (-2 to +2) = 0; inactive.
After knock-down of DECR2 (GeneID 26063), the screen gave two-siRNA summed score (-2 to +2) = 0; inactive.
With knock-down of FGF12 (GeneID 2257), the record shows two-siRNA summed score (-2 to +2) = 0; inactive.
Against MELK (GeneID 9833), the values are two-siRNA summed score (-2 to +2) = 0; inactive.
After knock-down of SRSF10 (GeneID 10772) the results were two-siRNA summed score (-2 to +2) = 1; inactive.
For LOC391773, the entry reads two-siRNA summed score (-2 to +2) = 1; inactive.
With knock-down of SLC11A2 (GeneID 4891), the screen gave two-siRNA summed score (-2 to +2) = 2; active.
DNAAF11 (GeneID 23639) gave two-siRNA summed score (-2 to +2) = 0; inactive.
EMILIN3 (GeneID 90187) gave two-siRNA summed score (-2 to +2) = 0; inactive.
Silencing of EIF3J (GeneID 8669) came out at: two-siRNA summed score (-2 to +2) = 0; inactive.
